According to patent publication US20240277890A1, “ANTIMICROBIAL ARTICLES COMPRISING POLYURETHANE” (Amicoat AS, priority 2021, published 2024):
Values joined by “and” are separate entries in the source; they are usually repeats but may differ in a detail not shown here. Equal values may be shown once. Read-outs that look alike come from different tables or passages of the source. At least one peptide structure holds a part that was inferred or is arguable (an end, a ring closure or a residue).

Tests used:
[1] = test system: Candida parapsilosis ATCC 22019; assay: MIC microbroth dilution (CLSI), extra control strain; type: cell-based; set-up: unit not given here; details: C. parapsilosis ATCC 22019; RPMI 1640
[2] = test system: Bacteroides fragilis - ATCC 25285; assay: as above; type: cell-based; set-up: unit not given here; details: B. fragilis ATCC 25285; SBB
[3] = test system: Eggerthella lenta - ATCC 43055; assay: as above; type: cell-based; set-up: unit not given here; details: E. lenta ATCC 43055; SBB
[4] = test system: Candida tropicalis ATCC750 - reference strain; set-up: unit not given beside the values; details: C. tropicalis ATCC750
[5] = test system: Aspergillus niger - G.R. Micro collection; set-up: unit not given beside the values; details: A. niger
[6] = test system: Trichophyton interdigitale - G.R. Micro collection; set-up: unit not given beside the values; details: T. interdigitale
[7] = test system: Microsporum canis - G.R. Micro collection; set-up: unit not given beside the values; details: M. canis
[8] = test system: Escherichia coli ATCC32518 - β-lactamase positive type strain; set-up: unit not given beside the values; details: E. coli ATCC32518 β-lactamase positive
[9] = test system: Klebsiella aerogenes - multi-drug resistant clinical isolate; set-up: unit not given beside the values; details: K. aerogenes multi-drug resistant isolate
[10] = test system: Staphylococcus aureus ATCC 29213 - antibiotic-susceptible control strain; set-up: unit not given beside the values; details: S. aureus ATCC 29213
[11] = test system: Staphylococcus aureus - multi-drug-resistant clinical isolate; set-up: unit not given beside the values; details: S. aureus multi-drug-resistant isolate
[12] = test system: Staphylococcus aureus - teicoplanin-intermediate clinical isolate; set-up: unit not given beside the values; details: S. aureus teicoplanin-intermediate isolate
[13] = test system: Staphylococcus epidermidis antibiotic susceptible clinical isolate; set-up: unit not given beside the values; details: S. epidermidis antibiotic susceptible isolate
[14] = test system: Enterococcus faecalis vancomycin-susceptible clinical isolate; set-up: unit not given beside the values; details: E. faecalis vancomycin-susceptible isolate
[15] = test system: Enterococcus faecalis vancomycin-resistant (VanA) clinical isolate; set-up: unit not given beside the values; details: E. faecalis vancomycin-resistant (VanA)
[16] = test system: Enterococcus faecalis high-level gentamicin-resistant clinical isolate; set-up: unit not given beside the values; details: E. faecalis high-level gentamicin-resistant
[17] = test system: Enterococcus faecium vancomycin-susceptible clinical isolate; details: E. faecium vancomycin-susceptible isolate
[18] = test system: Enterococcus faecium vancomycin-resistant (VanA) clinical isolate; details: E. faecium vancomycin-resistant (VanA)
[19] = test system: Enterococcus faecium vancomycin-resistant (VanB) clinical isolate; details: E. faecium vancomycin-resistant (VanB)
[20] = test system: Enterococcus gallinarum vancomycin-resistant (VanC) clinical isolate; details: E. gallinarum vancomycin-resistant (VanC)
[21] = test system: Streptococcus pneumoniae - penicillin-susceptible clinical isolate; details: S. pneumoniae penicillin-susceptible
[22] = test system: Streptococcus pyogenes - Macrolide (MLS) resistant clinical isolate; set-up: unit not given beside the values; details: S. pyogenes macrolide (MLS) resistant
[23] = test system: Corynebacterium jeikeium - multi-drug resistant clinical isolate; details: C. jeikeium multi-drug resistant
[24] = test system: EMRSA16 Staphylococcus aureus (MRSA) - SSCmec type 2; set-up: unit not given beside the values; details: EMRSA16 SSCmec type 2
[25] = test system: EMRSA15 Staphylococcus aureus (MRSA) - SSCmec type 4; set-up: unit not given beside the values; details: EMRSA15 SSCmec type 4
[26] = test system: Streptococcus agalactiae - antibiotic-susceptible clinical isolate; set-up: unit not given beside the values; details: S. agalactiae antibiotic-susceptible
[27] = test system: Group C Streptococcus - antibiotic-susceptible clinical isolate; set-up: unit not given beside the values
[28] = test system: Group G Streptococcus - macrolide-resistant clinical isolate; set-up: unit not given beside the values
[29] = test system: Streptococcus mitis - antibiotic-susceptible clinical isolate; set-up: unit not given beside the values; details: S. mitis antibiotic-susceptible
[30] = test system: Streptococcus constellatus - macrolide-resistant clinical isolate; set-up: unit not given beside the values; details: S. constellatus macrolide-resistant
[31] = test system: Streptococcus oralis - antibiotic-susceptible clinical isolate; set-up: unit not given beside the values; details: S. oralis antibiotic-susceptible
[32] = test system: Streptococcus oralis - macrolide-resistant clinical isolate; set-up: unit not given beside the values; details: S. oralis macrolide-resistant
[33] = test system: Streptococcus bovis - macrolide-resistant clinical isolate; set-up: unit not given beside the values; details: S. bovis macrolide-resistant
[34] = test system: Streptococcus sanguis - macrolide-resistant clinical isolate; set-up: unit not given beside the values; details: S. sanguis macrolide-resistant
[35] = test system: Haemophilus influenzae - ATCC 47247; assay: MIC microbroth dilution (CLSI), extra control strain; set-up: unit not given beside the values; details: H. influenzae ATCC 47247; plate type HTM

N=C(N)NCCC[C@H](NC(=O)[C@H](Cc1ccc(-c2ccc3ccccc3c2)cc1)NC(=O)[C@@H](N)CCCNC(=N)N)C(=O)NCCc1ccccc1 [Compound 1]
8: MIC [6] | MIC [7] | MIC [11] | MIC [14] | MIC [17] | MIC [19] | MIC [33]
16: MIC (control strain) [3] | MIC [13] | MIC [15] | MIC [16] | MIC [18] | MIC [26]
64: MIC (control strain) [2] | MIC [9] | MIC [21] | MIC [29] | MIC [30] | MIC [31]
2: MIC [4]
4 and 8: MIC (repeat control strain) ([10]; plate type Frozen MHB)
4: MIC (control strain) [1] | MIC [5] | MIC [10] | MIC (repeat control strain) ([10]; plate type Fresh MHB) | MIC [12] | MIC [20] | MIC [24] | MIC [25]
32: MIC [8] | MIC [22] | MIC [23] | MIC [27] | MIC [28] | MIC [32] | MIC [34] | MIC (control strain) [35]
